This continues a long series; more values of the same kind are listed elsewhere.
Assay: Stability test of injectable preparation (salt in WFI, HPLC)
Settings: in WFI 2 mg/ml

Row | Compound | Residual amount (25° C., day 0) [%] | Residual amount (25° C., day 3) [%] | Residual amount (25° C., day 14) [%] | Residual amount (25° C., day 21) [%] | Residual amount (25° C., day 30) [%] | Residual amount (25° C., day 60) [%] | Residual amount (25° C., day 90) [%] | Residual amount (25° C., day 120) [%] | Residual amount (25° C., day 150) [%] | Residual amount (25° C., day 180) [%] | Residual amount (40° C., day 0) [%] | Residual amount (40° C., day 3) [%] | Residual amount (40° C., day 7) [%] | Residual amount (40° C., day 14) [%] | Residual amount (40° C., day 21) [%] | Residual amount (40° C., day 30) [%] | Residual amount (40° C., day 60) [%] | Residual amount (40° C., day 90) [%] | Residual amount (40° C., day 120) [%] | Residual amount (40° C., day 150) [%] | further results
1 | O=C([O-])c1cc(NCc2c(F)c(F)c(C(F)(F)F)c(F)c2F)ccc1O.[K+] [potassium salt, potassium 2-hydroxy-5-(2,3,5,6-tetrafluoro-4-trifluoromethyl-benzylamino)benzoate] | 106.71 ± 0.29 | 107.86 ± 0.58 | 106.28 ± 1.29 | 98.94 ± 0.99 | 98.55 ± 0.43 | 97.73 ± 1.02 | 97.41 ± 0.02 | 97.40 ± 0.53 | 96.88 ± 3.09 | 95.99 ± 0.56 | 106.71 ± 0.29 | 107.73 ± 3.13 | 105.87 ± 2.04 | 104.97 ± 0.47 | 96.58 ± 0.38 | 95.66 ± 0.24 | 93.24 ± 3.04 | 92.91 ± 1.11 | 92.84 ± 0.91 | 91.72 ± 0.92 | Residual amount (40° C., day 180): 90.59 ± 0.83%; Residual amount (60° C., day 0): 106.71 ± 0.29%; Residual amount (60° C., day 3): 104.29 ± 0.50%; Residual amount (60° C., day 7): 101.76 ± 0.09%; Residual amount (60° C., day 14): 100.81 ± 0.83%; Residual amount (60° C., day 21): 90.02 ± 2.81%; Residual amount (60° C., day 30): 90.09 ± 1.88%; Residual amount (60° C., day 60): 87.38 ± 1.55%; Residual amount (60° C., day 90): 87.25 ± 1.55%; Residual amount (60° C., day 120): 86.37 ± 1.43%; Residual amount (60° C., day 150): 86.62 ± 0.83%; Residual amount (60° C., day 180): 84.68 ± 2.02%
2 | O=C([O-])c1cc(NCc2c(F)c(F)c(C(F)(F)F)c(F)c2F)ccc1O.[Li+] [lithium salt, lithium 2-hydroxy-5-(2,3,5,6-tetrafluoro-4-trifluoromethyl-benzylamino)benzoate] | 99.67 ± 0.12 | 99.72 ± 0.30 | 98.91 ± 0.41 | 98.81 ± 1.67 | 95.51 ± 0.52 | 93.40 ± 0.81 | 90.40 ± 0.68 | 90.34 ± 0.58 | 89.73 ± 2.47 | 87.81 ± 1.51 | 99.67 ± 0.12 | 99.42 ± 0.22 | 98.33 ± 1.14 | 97.21 ± 0.41 | 95.05 ± 0.40 | 90.89 ± 1.00 | 89.61 ± 1.31 | 88.80 ± 0.24 | 88.07 ± 0.48 | 87.65 ± 3.22 | Residual amount (25° C., day 7): 99.63 ± 0.35%; Residual amount (40° C., day 180): 84.63 ± 2.90%; Residual amount (60° C., day 0): 99.67 ± 0.12%; Residual amount (60° C., day 3): 99.28 ± 1.02%; Residual amount (60° C., day 7): 95.34 ± 1.02%; Residual amount (60° C., day 14): 94.78 ± 2.58%; Residual amount (60° C., day 21): 94.47 ± 2.18%; Residual amount (60° C., day 30): 93.40 ± 0.61%; Residual amount (60° C., day 60): 83.11 ± 0.47%; Residual amount (60° C., day 90): 81.84 ± 0.62%; Residual amount (60° C., day 120): 81.53 ± 2.36%; Residual amount (60° C., day 150): 80.81 ± 2.08%; Residual amount (60° C., day 180): 75.59 ± 3.15%

Reference: patent publication US7495126B2, “Process of preparation of substituted tetrafluorobenzylaniline compound and its pharmaceutically approved salts” (priority 2005, dated 2009)
